Results published in the supplement of paper PMC12819154, “High-throughput peptide-centric local stability assay extends protein–ligand identification to membrane proteins, tissues and bacteria” (Nature Structural & Molecular Biology, 2025).
This is one part of the list. Most entries show no effect beyond the scatter of the controls.

Chains of the proteins cited; added tags and fusions are not shown. Lines headed by an entry give the natural chain unless they say otherwise; changes in a name come on top.
UniProt Q9NWQ9: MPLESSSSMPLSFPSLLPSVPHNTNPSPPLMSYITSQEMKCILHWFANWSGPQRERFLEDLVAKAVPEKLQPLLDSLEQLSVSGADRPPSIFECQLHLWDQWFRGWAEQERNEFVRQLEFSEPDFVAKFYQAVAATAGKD
UniProt Q9NX04: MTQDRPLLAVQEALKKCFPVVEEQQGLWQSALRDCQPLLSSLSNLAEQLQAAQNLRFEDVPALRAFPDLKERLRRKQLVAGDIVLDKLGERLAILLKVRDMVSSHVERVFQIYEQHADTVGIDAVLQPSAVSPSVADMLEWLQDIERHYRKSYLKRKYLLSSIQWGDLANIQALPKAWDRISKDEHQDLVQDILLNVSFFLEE
UniProt Q9NQU5: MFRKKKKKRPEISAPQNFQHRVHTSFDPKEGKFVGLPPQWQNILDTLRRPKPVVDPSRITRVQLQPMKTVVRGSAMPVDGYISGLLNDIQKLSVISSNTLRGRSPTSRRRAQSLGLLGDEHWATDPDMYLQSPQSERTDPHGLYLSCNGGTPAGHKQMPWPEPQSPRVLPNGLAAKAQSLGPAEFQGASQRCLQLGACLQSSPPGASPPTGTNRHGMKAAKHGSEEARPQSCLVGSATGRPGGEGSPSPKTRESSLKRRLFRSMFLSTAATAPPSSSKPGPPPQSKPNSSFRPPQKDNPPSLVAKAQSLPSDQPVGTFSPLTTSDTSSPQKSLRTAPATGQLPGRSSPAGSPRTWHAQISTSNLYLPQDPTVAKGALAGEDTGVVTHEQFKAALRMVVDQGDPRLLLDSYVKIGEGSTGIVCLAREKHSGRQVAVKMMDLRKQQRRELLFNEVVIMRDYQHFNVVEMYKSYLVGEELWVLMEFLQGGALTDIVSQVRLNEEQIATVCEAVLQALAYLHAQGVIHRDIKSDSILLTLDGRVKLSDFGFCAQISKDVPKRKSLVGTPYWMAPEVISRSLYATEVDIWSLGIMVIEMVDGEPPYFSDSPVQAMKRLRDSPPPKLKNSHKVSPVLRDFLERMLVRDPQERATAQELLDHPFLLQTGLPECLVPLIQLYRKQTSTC
UniProt Q9NX74: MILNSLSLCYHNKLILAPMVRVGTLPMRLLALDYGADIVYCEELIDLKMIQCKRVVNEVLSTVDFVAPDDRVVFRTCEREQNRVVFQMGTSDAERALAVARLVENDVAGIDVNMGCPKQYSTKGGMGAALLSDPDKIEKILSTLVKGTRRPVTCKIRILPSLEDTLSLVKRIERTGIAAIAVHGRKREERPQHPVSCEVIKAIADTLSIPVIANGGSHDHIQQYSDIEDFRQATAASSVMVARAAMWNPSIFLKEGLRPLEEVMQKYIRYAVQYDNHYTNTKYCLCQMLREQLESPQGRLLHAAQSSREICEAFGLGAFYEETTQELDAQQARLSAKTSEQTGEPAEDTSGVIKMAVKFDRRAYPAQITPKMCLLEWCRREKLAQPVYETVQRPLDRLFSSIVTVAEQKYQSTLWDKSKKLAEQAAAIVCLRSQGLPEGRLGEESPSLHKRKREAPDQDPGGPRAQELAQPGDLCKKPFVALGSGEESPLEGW
UniProt Q9NSK0: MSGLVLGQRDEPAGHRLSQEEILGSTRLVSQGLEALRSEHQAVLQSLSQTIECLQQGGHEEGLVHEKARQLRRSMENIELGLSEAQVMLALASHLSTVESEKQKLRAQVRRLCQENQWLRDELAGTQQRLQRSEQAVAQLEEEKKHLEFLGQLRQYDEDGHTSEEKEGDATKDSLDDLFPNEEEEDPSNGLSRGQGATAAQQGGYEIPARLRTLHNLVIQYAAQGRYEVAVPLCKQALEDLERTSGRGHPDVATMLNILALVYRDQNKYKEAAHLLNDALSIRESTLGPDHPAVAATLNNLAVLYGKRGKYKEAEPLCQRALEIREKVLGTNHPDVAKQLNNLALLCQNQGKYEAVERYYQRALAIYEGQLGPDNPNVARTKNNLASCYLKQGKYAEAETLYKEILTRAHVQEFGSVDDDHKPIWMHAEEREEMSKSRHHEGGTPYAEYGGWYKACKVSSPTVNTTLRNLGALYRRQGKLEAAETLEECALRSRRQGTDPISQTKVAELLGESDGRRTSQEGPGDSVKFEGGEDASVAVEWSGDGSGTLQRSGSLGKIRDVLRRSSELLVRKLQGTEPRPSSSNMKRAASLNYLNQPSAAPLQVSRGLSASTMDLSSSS
UniProt Q9NSI6, whole entry: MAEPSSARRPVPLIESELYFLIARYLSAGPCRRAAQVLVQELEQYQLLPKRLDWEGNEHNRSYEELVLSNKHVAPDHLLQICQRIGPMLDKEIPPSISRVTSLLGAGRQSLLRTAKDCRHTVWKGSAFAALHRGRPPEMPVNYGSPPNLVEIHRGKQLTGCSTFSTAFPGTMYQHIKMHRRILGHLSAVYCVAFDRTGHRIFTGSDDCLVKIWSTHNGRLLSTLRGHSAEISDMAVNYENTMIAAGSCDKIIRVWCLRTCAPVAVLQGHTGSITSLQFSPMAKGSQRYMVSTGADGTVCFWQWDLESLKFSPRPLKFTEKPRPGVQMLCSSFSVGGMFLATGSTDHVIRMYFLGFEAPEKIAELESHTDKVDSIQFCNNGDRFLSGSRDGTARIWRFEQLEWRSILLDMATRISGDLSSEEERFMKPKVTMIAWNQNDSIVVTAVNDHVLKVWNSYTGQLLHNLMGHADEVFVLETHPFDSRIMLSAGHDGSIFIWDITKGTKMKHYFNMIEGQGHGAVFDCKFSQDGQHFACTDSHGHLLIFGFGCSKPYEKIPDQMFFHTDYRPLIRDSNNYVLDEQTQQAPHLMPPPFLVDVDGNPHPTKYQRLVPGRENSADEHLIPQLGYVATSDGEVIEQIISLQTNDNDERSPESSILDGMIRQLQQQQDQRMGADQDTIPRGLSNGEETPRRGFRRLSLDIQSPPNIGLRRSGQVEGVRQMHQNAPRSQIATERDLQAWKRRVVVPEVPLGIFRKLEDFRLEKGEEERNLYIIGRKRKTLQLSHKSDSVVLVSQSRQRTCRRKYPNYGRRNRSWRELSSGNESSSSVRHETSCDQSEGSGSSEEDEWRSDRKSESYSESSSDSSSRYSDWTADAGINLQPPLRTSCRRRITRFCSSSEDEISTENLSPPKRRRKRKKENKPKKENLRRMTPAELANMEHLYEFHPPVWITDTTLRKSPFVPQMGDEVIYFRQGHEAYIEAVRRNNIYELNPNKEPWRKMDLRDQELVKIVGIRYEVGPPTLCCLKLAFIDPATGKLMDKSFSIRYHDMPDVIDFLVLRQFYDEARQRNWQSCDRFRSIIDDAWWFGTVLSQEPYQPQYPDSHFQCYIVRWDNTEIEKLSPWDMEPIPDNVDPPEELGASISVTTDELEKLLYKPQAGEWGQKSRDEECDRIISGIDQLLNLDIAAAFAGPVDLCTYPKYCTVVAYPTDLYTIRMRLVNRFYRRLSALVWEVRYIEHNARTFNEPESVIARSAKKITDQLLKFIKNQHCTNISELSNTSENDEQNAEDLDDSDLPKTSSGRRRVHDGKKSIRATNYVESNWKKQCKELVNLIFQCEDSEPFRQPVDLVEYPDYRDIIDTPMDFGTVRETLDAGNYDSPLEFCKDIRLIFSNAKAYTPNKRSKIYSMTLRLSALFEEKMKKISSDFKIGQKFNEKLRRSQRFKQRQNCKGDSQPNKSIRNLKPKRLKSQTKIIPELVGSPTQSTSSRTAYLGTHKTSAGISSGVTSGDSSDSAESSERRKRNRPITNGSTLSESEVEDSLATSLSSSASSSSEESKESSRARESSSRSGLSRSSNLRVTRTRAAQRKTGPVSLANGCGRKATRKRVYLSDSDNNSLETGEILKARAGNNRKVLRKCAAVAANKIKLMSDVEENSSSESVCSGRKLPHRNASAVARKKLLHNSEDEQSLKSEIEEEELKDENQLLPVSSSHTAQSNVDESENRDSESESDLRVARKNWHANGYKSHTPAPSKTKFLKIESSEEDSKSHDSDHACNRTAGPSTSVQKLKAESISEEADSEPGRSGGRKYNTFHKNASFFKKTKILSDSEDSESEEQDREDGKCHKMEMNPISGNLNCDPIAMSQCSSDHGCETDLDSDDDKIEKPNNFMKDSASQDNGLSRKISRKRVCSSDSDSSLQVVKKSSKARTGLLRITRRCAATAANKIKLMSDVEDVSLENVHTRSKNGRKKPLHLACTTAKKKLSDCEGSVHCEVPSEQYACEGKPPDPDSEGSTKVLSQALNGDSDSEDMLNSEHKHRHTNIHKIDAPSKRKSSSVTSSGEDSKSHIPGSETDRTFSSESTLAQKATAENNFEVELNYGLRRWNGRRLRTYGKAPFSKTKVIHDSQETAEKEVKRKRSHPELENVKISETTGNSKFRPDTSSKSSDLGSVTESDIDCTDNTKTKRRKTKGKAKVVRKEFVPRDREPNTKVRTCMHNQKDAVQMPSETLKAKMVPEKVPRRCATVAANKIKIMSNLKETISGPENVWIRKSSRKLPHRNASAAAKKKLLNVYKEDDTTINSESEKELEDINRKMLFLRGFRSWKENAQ
UniProt Q9NX24: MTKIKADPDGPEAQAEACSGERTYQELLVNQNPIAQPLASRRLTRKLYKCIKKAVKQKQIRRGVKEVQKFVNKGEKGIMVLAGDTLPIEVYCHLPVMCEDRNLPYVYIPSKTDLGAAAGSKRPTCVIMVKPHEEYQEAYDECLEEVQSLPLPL
UniProt Q9NS56: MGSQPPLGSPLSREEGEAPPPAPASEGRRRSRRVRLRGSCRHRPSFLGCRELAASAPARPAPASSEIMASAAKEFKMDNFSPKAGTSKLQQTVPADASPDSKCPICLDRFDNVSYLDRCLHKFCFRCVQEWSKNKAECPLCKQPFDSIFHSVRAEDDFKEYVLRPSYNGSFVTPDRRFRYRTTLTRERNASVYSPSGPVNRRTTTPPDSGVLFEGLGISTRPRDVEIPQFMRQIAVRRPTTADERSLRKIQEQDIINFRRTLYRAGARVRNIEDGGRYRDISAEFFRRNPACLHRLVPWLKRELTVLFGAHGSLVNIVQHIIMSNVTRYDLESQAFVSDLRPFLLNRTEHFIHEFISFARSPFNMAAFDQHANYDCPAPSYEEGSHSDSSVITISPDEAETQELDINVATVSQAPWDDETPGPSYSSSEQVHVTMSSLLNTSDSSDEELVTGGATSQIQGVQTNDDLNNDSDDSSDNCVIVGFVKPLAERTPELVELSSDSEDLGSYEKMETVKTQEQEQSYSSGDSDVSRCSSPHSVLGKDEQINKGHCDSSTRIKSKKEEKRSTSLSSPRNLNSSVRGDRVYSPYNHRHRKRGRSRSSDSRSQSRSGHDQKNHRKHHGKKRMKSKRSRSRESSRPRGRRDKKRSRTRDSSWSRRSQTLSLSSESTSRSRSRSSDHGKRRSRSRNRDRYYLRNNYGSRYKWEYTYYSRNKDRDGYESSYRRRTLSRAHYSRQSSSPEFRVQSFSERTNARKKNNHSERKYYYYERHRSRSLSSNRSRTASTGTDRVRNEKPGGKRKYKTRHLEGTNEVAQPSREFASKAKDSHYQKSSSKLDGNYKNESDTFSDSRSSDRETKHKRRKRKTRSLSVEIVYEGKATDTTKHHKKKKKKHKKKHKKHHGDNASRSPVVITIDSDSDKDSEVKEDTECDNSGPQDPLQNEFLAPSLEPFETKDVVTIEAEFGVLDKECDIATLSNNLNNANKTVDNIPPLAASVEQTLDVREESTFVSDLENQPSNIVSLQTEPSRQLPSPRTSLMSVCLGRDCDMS
UniProt Q9NXH8: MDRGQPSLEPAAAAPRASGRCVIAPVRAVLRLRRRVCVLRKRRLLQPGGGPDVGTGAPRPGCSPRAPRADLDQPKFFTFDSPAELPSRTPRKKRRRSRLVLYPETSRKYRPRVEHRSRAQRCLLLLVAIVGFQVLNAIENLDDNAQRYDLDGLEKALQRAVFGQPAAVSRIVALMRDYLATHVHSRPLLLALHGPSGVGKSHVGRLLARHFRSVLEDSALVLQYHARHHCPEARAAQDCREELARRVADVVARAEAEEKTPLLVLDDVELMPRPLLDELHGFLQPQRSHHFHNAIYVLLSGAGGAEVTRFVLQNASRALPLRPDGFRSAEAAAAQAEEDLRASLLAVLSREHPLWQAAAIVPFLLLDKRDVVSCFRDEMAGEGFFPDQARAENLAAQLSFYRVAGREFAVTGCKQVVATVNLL
UniProt Q9NY12: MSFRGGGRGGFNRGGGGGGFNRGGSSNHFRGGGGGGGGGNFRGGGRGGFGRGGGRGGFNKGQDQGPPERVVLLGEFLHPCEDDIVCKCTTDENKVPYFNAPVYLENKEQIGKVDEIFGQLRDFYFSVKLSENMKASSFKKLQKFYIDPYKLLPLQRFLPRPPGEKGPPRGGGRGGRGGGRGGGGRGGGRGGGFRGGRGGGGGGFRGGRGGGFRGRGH

Compound: CN[C@@H]1C[C@H]2O[C@@](C)([C@@H]1OC)n1c3ccccc3c3c4c(c5c6ccccc6n2c5c31)C(=O)NC4 [staurosporine]
Assay: log2 fold change of tryptic peptide abundance, ligand vs vehicle (limited proteolysis) (log2 ratio); higher = more trypsin-susceptible (destabilized)
Conditions: ligand concentration: 20 uM; sample: K562 cleared lysate; digestion: 4 min, 22 C (HT-PELSA RT4min, Orbitrap Astral)

| Target | log2 fold change |
| --- | --- |
| C14orf119 (peptide sequence: FLEDLVAK, peptide start residue: 57) (UniProt Q9NWQ9) | 0.171 |
| C1orf109 (peptide sequence: FEDVPALR, peptide start residue: 57) (UniProt Q9NX04) | 0.0799 |
| PAK6 (peptide sequence: RELLFNEVVIMR, peptide start residue: 360) (UniProt Q9NQU5) | -0.375 |
| UniProt Q9NX74 (peptide sequence: MCLLEWCR, peptide start residue: 372) | -0.183 |
| KLC4 (peptide sequence: YAEAETLYK, peptide start residue: 395) (UniProt Q9NSK0) | -0.137 |
| BRWD1 (peptide sequence: SDSVVLVSQSR, peptide start residue: 784) (UniProt Q9NSI6) | 0.356 |
| NHP2 (peptide sequence: ADPDGPEAQAEACSGER, peptide start residue: 6) (UniProt Q9NX24) | -0.196 |
| ETAA1 (peptide sequence: EQPPTAALCSK, peptide start residue: 60) (UniProt Q9NY74) | -0.397 |
| UniProt Q9NS56 (peptide sequence: KIQEQDIINFR, peptide start residue: 249) | -0.342 |
| UniProt Q9NXH8 (peptide sequence: SVLEDSALVLQYHAR, peptide start residue: 213) | 0.15 |
| GAR1 (peptide sequence: DFYFSVK, peptide start residue: 122) (UniProt Q9NY12) | -0.102 |
